From article PMC6696123

B1: farnesyl diphosphate synthase (S. cerevisiae) (enzyme, UniProt P08524 1-352)
chain: MASEKEIRRERFLNVFPKLVEELNASLLAYGMPKEACDWYAHSLNYNTPGGKLNRGLSVVDTYAILSNKTVEQLGQEEYEKVAILGWCIELLQAYFLVADDMMDKSITRRGQPCWYKVPEVGEIAINDAFMLEAAIYKLLKSHFRNEKYYIDITELFHEVTFQTELGQLMDLITAPEDKVDLSKFSLKKHSFIVTFKTAYYSFYLPVALAMYVAGITDEKDLKQARDVLIPLGEYFQIQDDYLDCFGTPEQIGKIGTDIQDNKCSWVINKALELASAEQRKTLDENYGKKDSVAEAKCKKIFNDLKIEQLYHEYEESIAKDLKAKISQVDESRGFKADVLTAFLNKVYKRSK
B2: IPP:DMAPP isomerase (S. cerevisiae) (enzyme, UniProt P15496 1-288)
chain: MTADNNSMPHGAVSSYAKLVQNQTPEDILEEFPEIIPLQQRPNTRSSETSNDESGETCFSGHDEEQIKLMNENCIVLDWDDNAIGAGTKKVCHLMENIEKGLLHRAFSVFIFNEQGELLLQQRATEKITFPDLWTNTCCSHPLCIDDELGLKGKLDDKIKGAITAAVRKLDHELGIPEDETKTRGKFHFLNRIHYMAPSNEPWGEHEIDYILFYKINAKENLTVNPNVNEVRDFKWVSPNDLKTMFADPSYKFTPWFKIICENYLFNWWEQLDDLSEVENDRQIHRML

Biological target: alkaline phosphatase (S. cerevisiae) (S. cerevisiae (endogenous in INVSc1))
Assay: SEC; endogenous proteins of INVSc1 yeast without LLA66, co-purified by DEAE ion exchange (200 to 300 mM NaCl), Ni-NTA (eluted by at least 100 mM imidazole), strong anion exchange, then size exclusion chromatography; bands of approximately 60, 40 and 30 kDa of the active peak identified by LC-MS/MS

Binder	binding
B1	binds
B2	binds

These are yes or no findings as the source states them, for the method shown. Binding seen in cells or lysates may run through a third protein. Binding can be weak; no strength is given.
